Experimental data reported in the supplement of paper PMC7024190.
Where a name gives a salt, the structure may show the parent alone. The list shows a part of the results. This data set is noisy: repeats of one test often differ as much as different tests do.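 Human embryonic kidney cells were transiently transfected with a plasmid bearing a Renilla luciferase gene under the HSV-TK promoter. This first-round screen tests roughly ten thousand compounds for ones that increase reporter output.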

The molecules below were run on HEK 293FT (assay: log relative Renilla luciferase luminescence (reporter expression vs reference, reference not stated) (log (base not stated)); higher = higher recombinant reporter expression). Details: 10 µM; time after transfection 48 h.

Row | Compound | log
1 | C[C@@H](O)[C@H]1C(=O)N2C(C(=O)O)=C(SCCNC=N)C[C@H]12 [imipenem] | 0.0961
2 | c1ccc2c(c1)CCCC2C1=NCCN1 (centres undefined) [tetrahydrozoline hydrochloride] | 0.000294
3 | COc1ccc(-c2coc3cc(O)ccc3c2=O)cc1 [formononetin] | 0.108
4 | Oc1c(Br)cc(Br)c2cccnc12 [broxyquinoline] | -1.04
5 | NC(=O)c1ccccc1O [salicylamide] | 0.119
6 | COc1cc2c(cc1OC)C1C(=O)c3c(O)cc4c(c3OC1CO2)C=CC(C)(C)O4 (stereo not drawn) [alpha-toxicarol (dl)] | -0.601
7 | CCOC(=O)N1CCC(=C2c3ccc(Cl)cc3CCc3cccnc32)CC1 [loratadine] | 0.142
8 | Nc1nc(F)nc2c1ncn2[C@@H]1O[C@H](COP(=O)(O)O)[C@@H](O)[C@@H]1O [fludarabine phosphate] | -0.0337
9 | NC(=O)N[C@@H](CCC(=O)O)C(=O)O [carglumic acid] | 0.0257
10 | CC(=O)[C@@]12O[C@](C)(c3ccccc3)O[C@@H]1C[C@H]1[C@@H]3CCC4=CC(=O)CC[C@]4(C)[C@H]3CC[C@@]12C [algestone acetophenide] | -0.0732
11 | COCCCC/C(=N\OCCN)c1ccc(C(F)(F)F)cc1 [fluvoxamine maleate] | 0.195
12 | COC(=O)[C@H](c1ccccc1Cl)N1CCc2sccc2C1 [clopidogrel sulfate] | 0.124
13 | C[C@]12CCC(=O)C=C1CC[C@@H]1[C@@H]2C(=O)C[C@@]2(C)[C@H]1CC[C@]2(O)C(=O)CO [cortisone] | 0.0499
14 | C[C@H](N[C@@H](CCc1ccccc1)C(=O)O)C(=O)N1CCC[C@H]1C(=O)O [enalaprilat] | -0.0373
15 | COc1cc(OC)c2c(=O)c(OC)c(-c3ccccc3)oc2c1 [galangin trimethyl ether] | 0.26
16 | CN(C)[C@@H]1C(O)=C(C(N)=O)C(=O)[C@@]2(O)C(O)=C3C(=O)c4c(O)cccc4[C@@](C)(O)[C@H]3C[C@@H]12 [tetracycline hydrochloride] | 0.0856
17 | COc1cc2occ(-c3ccc(OC)c(OC)c3OC)c(=O)c2cc1OC [6,7,2',3',4'-pentamethoxyisoflavone] | 0.0453
18 | O=C1c2c(O)cc(CO)cc2C(OC2OC(CO)C(O)C(O)C2O)c2cccc(OC3OC(CO)C(O)C(O)C3O)c21 (centres undefined) [casanthranol [cascaroside a shown]] | -0.122
19 | Cc1ccc(N(CC2=NCCN2)c2cccc(O)c2)cc1 [phentolamine hydrochloride] | -0.137
20 | O=C(O)c1ccccc1-c1c2cc(I)c(=O)c(I)c-2oc2c(I)c(O)c(I)cc12 [erythrosine sodium] | -0.0105
21 | CCc1ccc(CCOc2ccc(CC3SC(=O)NC3=O)cc2)nc1 (centres undefined) [pioglitazone hydrochloride] | -0.0193
22 | Cc1c(Cl)cccc1Nc1ccccc1C(=O)O [tolfenamic acid] | 0.0409
23 | CCCSc1ccc2[nH]c(NC(=O)OC)nc2c1 [albendazole] | -0.231

Row | Compound | log
24 | C[C@@H]1CC[C@H]2C(C)(C)[C@H]3C[C@@]12CC[C@@]3(C)O [cedrol] | -0.0245
25 | CC(=O)C1=C(O)C=C2Oc3c(C(C)=O)c(O)c(C)c(O)c3C2(C)C1=O (stereo in doubt) [usnic acid] | 0.115
26 | CO[C@H]1/C=C/O[C@@]2(C)Oc3c(C)c(O)c4c(O)c(c(/C=N/N5CCN(C)CC5)c(O)c4c3C2=O)NC(=O)/C(C)=C\C=C\[C@H](C)[C@H](O)[C@@H](C)[C@@H](O)[C@@H](C)[C@H](OC(C)=O)[C@@H]1C [rifampin] | -0.00201
27 | COc1cc(C)c(C(=O)O)c(O)c1 [everninic acid] | 0.0459
28 | CC(C(=O)O)c1ccc(CC2CCCC2=O)cc1 (centres undefined) [loxoprofen] | 0.097
29 | CC[C@H]1OC(=O)[C@H](C)[C@@H](O[C@H]2C[C@@](C)(OC)[C@@H](O)[C@H](C)O2)[C@H](C)[C@@H](O[C@@H]2O[C@H](C)C[C@H](N(C)C)[C@H]2O)[C@](C)(O)C[C@@H](C)C(=O)[C@H](C)[C@@H](O)[C@]1(C)O [erythromycin] | 0.122
30 | CC[C@H]1OC(=O)[C@H](C)[C@@H](O[C@H]2C[C@@](C)(OC)[C@@H](O)[C@H](C)O2)[C@H](C)[C@@H](O[C@@H]2O[C@H](C)C[C@H](N(C)C)[C@H]2O)[C@](C)(O)C[C@@H](C)C(=O)[C@H](C)[C@@H](O)[C@]1(C)O [erythromycin stearate] | 0.0547
31 | CC1=C(/C=C/C(C)=C/C=C/C(C)=C/C=C/C=C(C)/C=C/C=C(C)/C=C/C2=C(C)CCCC2(C)C)C(C)(C)CCC1 [beta-carotene] | -0.681
32 | c1ccc(CC2=NCCN2)cc1 [tolazoline hydrochloride] | 0.0583
33 | NCCCCC(=O)O [5-aminopentanoic acid hydrochloride] | 0.0209
34 | OCCN1CCN(CCCN2c3ccccc3Sc3ccc(C(F)(F)F)cc32)CC1 [fluphenazine hydrochloride] | 0.175
35 | CC(C)(Oc1ccc(CCNC(=O)c2ccc(Cl)cc2)cc1)C(=O)O [bezafibrate] | -0.0516
36 | CC1=CC(=O)[C@H]2C(C)(C)CCC[C@]2(C)[C@@]1(O)CCc1ccoc1 [solidagenone] | -0.0804
37 | CC(=O)OCC(=O)[C@H]1CC[C@H]2[C@@H]3CC=C4C[C@@H](O)CC[C@]4(C)[C@H]3CC[C@]12C [21-acetoxypregnenolone] | 0.133
38 | Clc1ccc2c(c1)C(N1CCNCC1)=Nc1ccccc1O2 [amoxapine] | 0.134
39 | CC(C)[C@@H](C)/C=C/[C@@H](C)[C@H]1CC[C@H]2C3=CC=C4C[C@@H](O)CC[C@]4(C)[C@H]3CC[C@]12C [ergosterol] | -0.166
40 | O=C1c2ccccc2C(=O)C1c1ccccc1 [phenindione] | -0.0961
41 | CC1(C)C=Cc2c(c3c(c4c(=O)c(-c5ccc(O)cc5)coc24)OC(C)(C)CC3)O1 [isoosajin] | -0.129
42 | O=C(O)CCc1nc(-c2ccccc2)c(-c2ccccc2)o1 [oxaprozin] | 0.0799
43 | Oc1ccc(OCc2ccccc2)cc1 [monobenzone] | 0.033
44 | C[C@H]1C[C@H]2[C@@H]3CCC4=CC(=O)C=C[C@]4(C)[C@@]3(F)[C@@H](O)C[C@]2(C)[C@@]1(O)C(=O)CO [betamethasone] | -0.116
45 | CC(C)C1=CC2=CC[C@@H]3[C@](C)(CCC[C@@]3(C)C(=O)O)[C@H]2CC1 [abietic acid] | 0.154
46 | Cc1ccc(Cl)c(Nc2ccccc2C(=O)O)c1Cl [meclofenamate sodium] | -0.00605

Some of the entries so far, as a markdown table:

| Row | Compound | log |
| --- | --- | --- |
| 26 | CO[C@H]1/C=C/O[C@@]2(C)Oc3c(C)c(O)c4c(O)c(c(/C=N/N5CCN(C)CC5)c(O)c4c3C2=O)NC(=O)/C(C)=C\C=C\[C@H](C)[C@H](O)[C@@H](C)[C@@H](O)[C@@H](C)[C@H](OC(C)=O)[C@@H]1C [rifampin] | -0.00201 |
| 29 | CC[C@H]1OC(=O)[C@H](C)[C@@H](O[C@H]2C[C@@](C)(OC)[C@@H](O)[C@H](C)O2)[C@H](C)[C@@H](O[C@@H]2O[C@H](C)C[C@H](N(C)C)[C@H]2O)[C@](C)(O)C[C@@H](C)C(=O)[C@H](C)[C@@H](O)[C@]1(C)O [erythromycin] | 0.122 |
| 36 | CC1=CC(=O)[C@H]2C(C)(C)CCC[C@]2(C)[C@@]1(O)CCc1ccoc1 [solidagenone] | -0.0804 |
| 39 | CC(C)[C@@H](C)/C=C/[C@@H](C)[C@H]1CC[C@H]2C3=CC=C4C[C@@H](O)CC[C@]4(C)[C@H]3CC[C@]12C [ergosterol] | -0.166 |

The listing continues.

Row | Compound | log
47 | O=C(NCCO[N+](=O)[O-])c1cccnc1 [nicorandil] | 0.0583
48 | CCN1CCN(C(=O)N[C@@H](C(=O)N[C@@H]2C(=O)N3C(C(=O)O)=C(CSc4nnnn4C)CS[C@H]23)c2ccc(O)cc2)C(=O)C1=O [cefoperazone] | 0.122
49 | CN(C)CCOc1ccc(/C(=C(/CCCl)c2ccccc2)c2ccccc2)cc1 [toremiphene citrate] | 0.0433
50 | CC(C(=O)O)c1ccc(N2Cc3ccccc3C2=O)cc1 (centres undefined) [indoprofen] | 0.168
51 | CO[C@@]12[C@H](COC(N)=O)C3=C(C(=O)C(C)=C(N)C3=O)N1C[C@@H]1N[C@@H]12 [mitomycin] | -0.785
52 | CC1=Nc2ccc(Cl)cc2S(=O)(=O)N1 [diazoxide] | -0.00201
53 | O=c1c(-c2ccc(O)cc2)coc2c([C@@H]3O[C@H](CO)[C@@H](O)[C@H](O)[C@H]3O)c(O)ccc12 [puerarin] | -0.0348
54 | O=C(O)C(S)C(S)C(=O)O (centres undefined) [2,3-dimercaptosuccinic acid] | 0.0391
55 | CCn1nc(C(=O)O)c(=O)c2cc3c(cc21)OCO3 [cinoxacin] | -0.0774
56 | Cc1cc(/C=C/c2ccc3cc(N(C)C)ccc3[n+]2C)c(C)n1-c1ccccc1 [pyrvinium pamoate] | -1.39
57 | CC(C)=CCC/C(C)=C/CC/C(C)=C/CC/C(C)=C/CC/C(C)=C/CC/C(C)=C/CC/C(C)=C/CC/C(C)=C/CC/C(C)=C/CO [solanesol] | 0.00103
58 | CC(C)(Oc1ccc(C(=O)c2ccc(Cl)cc2)cc1)C(=O)O [fenofibric acid] | 0.107
59 | CCCCNc1ccc(C(=O)OCCOCCOCCOCCOCCOCCOCCOCCOCCOC)cc1 [benzonatate] | -0.0803
60 | O=C(O[C@@H]1Cc2c(O)cc(O)cc2O[C@@H]1c1cc(O)c(=O)c2c(O)c(O)cc([C@H]3Oc4cc(O)cc(O)c4C[C@H]3O)c2c1)c1cc(O)c(O)c(O)c1 [theaflavin monogallates] | 0.189
61 | COC(=O)CC[C@@H](C)[C@H]1CC[C@H]2[C@@H]3CC[C@@H]4C[C@H](O)CC[C@]4(C)[C@H]3C[C@H](O)[C@]12C [methyl deoxycholate] | -0.226
62 | C[C@@H]1C[C@H]2[C@@H]3CCC4=CC(=O)C=C[C@]4(C)[C@@]3(F)[C@@H](O)C[C@]2(C)[C@@]1(O)C(=O)CO [dexamethasone] | -0.0826
63 | OC1(c2ccc(Cl)c(C(F)(F)F)c2)CCN(CCCC(c2ccc(F)cc2)c2ccc(F)cc2)CC1 [penfluridol] | -0.143
64 | O=C(O)COC(=O)Cc1ccccc1Nc1c(Cl)cccc1Cl [aceclofenac] | -0.0443
65 | Cc1cnc(NC(=O)C2=C(O)c3ccccc3S(=O)(=O)N2C)s1 [meloxicam sodium] | -0.0183
66 | O=C(O)CCCc1ccccc1 [sodium phenylbutyrate] | -0.0106
67 | O=C(O)CCCc1ccccc1 [phenylbutyrate sodium] | -0.0457
68 | NC1=NCCN1CC(=O)O [cyclocreatine] | 0.122
69 | CC1(C)O[C@@H]2C[C@H]3[C@@H]4CCC5=CC(=O)C=C[C@]5(C)[C@@]4(F)[C@@H](O)C[C@]3(C)[C@]2(C(=O)CO)O1 [triamcinolone acetonide] | -0.184
